Results: PubChem BioAssay AID493027 (The Scripps Research Institute Molecular Screening Center, 2011)
“And” between values parts separate entries of the source, which are not always exact repeats. Identical values can stand only once. About 45 (2%) of roughly 2,000 compounds were called active.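 Rule for the calls: active = inhibition above the screen-wide mean inhibition plus 3 SD (cut at about 44% in these data); inactive = the rest.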 The list shows a part of the results.

Protein sequences, listed by entry. Tags and fused reporters are not part of them. Lines headed by an entry give the natural chain unless they say otherwise; changes in a name come on top.
UniProt O60240: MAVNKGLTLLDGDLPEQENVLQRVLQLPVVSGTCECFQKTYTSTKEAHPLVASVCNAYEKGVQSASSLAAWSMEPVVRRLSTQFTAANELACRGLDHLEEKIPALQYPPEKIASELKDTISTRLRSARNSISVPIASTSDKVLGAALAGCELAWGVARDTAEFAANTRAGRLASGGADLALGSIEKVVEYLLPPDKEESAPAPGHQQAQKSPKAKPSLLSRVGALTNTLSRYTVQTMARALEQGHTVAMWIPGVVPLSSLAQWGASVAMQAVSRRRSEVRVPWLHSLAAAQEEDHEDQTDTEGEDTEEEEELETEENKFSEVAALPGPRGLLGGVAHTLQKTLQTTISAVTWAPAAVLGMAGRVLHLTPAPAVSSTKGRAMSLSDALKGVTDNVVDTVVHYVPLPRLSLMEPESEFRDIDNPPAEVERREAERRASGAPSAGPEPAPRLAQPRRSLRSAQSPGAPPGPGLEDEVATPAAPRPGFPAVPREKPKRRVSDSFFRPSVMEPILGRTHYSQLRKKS
UniProt Q8WTS1: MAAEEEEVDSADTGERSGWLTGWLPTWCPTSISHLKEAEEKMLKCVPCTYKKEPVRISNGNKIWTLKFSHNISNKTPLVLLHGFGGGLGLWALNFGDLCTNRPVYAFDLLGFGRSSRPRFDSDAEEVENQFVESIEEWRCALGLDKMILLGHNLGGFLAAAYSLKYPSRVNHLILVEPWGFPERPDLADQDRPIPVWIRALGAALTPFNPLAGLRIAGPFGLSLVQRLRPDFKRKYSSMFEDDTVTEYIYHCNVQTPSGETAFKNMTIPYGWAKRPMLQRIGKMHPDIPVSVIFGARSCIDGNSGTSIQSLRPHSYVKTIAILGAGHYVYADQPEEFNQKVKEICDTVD

These compounds were tested against Perilipin-1 (Homo sapiens) + 1-acylglycerol-3-phosphate O-acyltransferase ABHD5 (Homo sapiens) (UniProt O60240+Q8WTS1) (assay: blockers of ABHD5 binding to perilipin-1 – cell lysate, split luciferase complementation, luminescence, NIH validation set, pilot screen (AID 493027;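 note: 0% = DMSO wells with the 100% control not disclosed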)). Details: split G. princeps luciferase complementation, 4 h; at 7.9 µM, stronger effect = higher value.

| SMILES | inhibition |
| --- | --- |
| c1ccc2[nH]c(-c3cscn3)nc2c1 | inactive: -13.2% |
| COc1ccc2c(c1)[N+](C)(C)C(C)(C)C=C2C | inactive: -6.86% |
| C#CCN1C(=O)C(O)(c2c(C)[nH]c3ccccc23)c2ccccc21 (centres undefined) | inactive: -1.35% |
| COc1ccccc1C(O)c1nccn1C (centres undefined) | inactive: -3.47% |
| CCOC(=O)C1=C[C@]2(CC)CCCN3CCc4c(n1c1ccccc41)[C@@H]32 | inactive: -9.26% |
| COCCn1c(/C=C/c2ccccc2)nc2ccccc21 | inactive: 4.15% |
| CC1CNCCN1S(=O)(=O)c1cccc2cnccc12 (centres undefined) | inactive: 7.22% |
| Cc1cccc(CN2CCN(C(c3ccccc3)c3ccc(Cl)cc3)CC2)c1 (centres undefined) | inactive: -7.04% |
| COC1CCCCC1Nc1ccc(C)c(C)c1 (centres undefined) | inactive: -2.83% |
| OC(C#CCN1CCCC1)(c1ccccc1)c1cccnc1 (centres undefined) | inactive: 0.07% |
| CN=C1c2cc3cc(OC)ccc3n2CCN1C | inactive: 3.44% |
| O=C(OCCN1CCCC1)C1(c2ccccc2)CCCC1 | inactive: -8.49% |
| COC(=O)c1ccc(NC(=O)C23CCC(C)(C(=O)O2)C3(C)C)cc1 (centres undefined) | inactive: -0.66% |
| CC(C)=CCCC(C)CN1CCC(N2CCC(C(=O)N3CCCC3)CC2)CC1 (centres undefined) | inactive: -9.96% |
| C[C@]12CC[C@@H]3c4ccc(O)cc4CC[C@H]3[C@@H]1CCC2=O | inactive: 7.19% |
| CC(NC(=O)c1ccc(OC2CCN(Cc3ccccn3)CC2)cc1)c1ccccc1 (centres undefined) | inactive: -13.1% |
| COc1ccc(C)cc1S(=O)(=O)Nc1ccc(F)cc1 | inactive: 5.9% |
| CN1CC2CCCC3(C1)C(=O)NC1(CCCCC1)N=C23 (centres undefined) | inactive: -6.33% |
| COc1ccc(-c2cc(C(=O)N3CCOCC3)c3cc(C)ccc3n2)cc1 | inactive: -2.54% |
| O=C(/C=C/c1ccc2c(c1)OCO2)NCc1ccc(F)cc1 | inactive: -2.57% |
| Cc1csc(CCc2nc(C)cs2)n1 | inactive: -3.21% |
| O=C(Oc1ccc2c3c(c(=O)oc2c1)CCCC3)c1ccco1 | inactive: 7.31% |
| COc1ccc(-c2c(C)c3ccc(OCC(C)=O)cc3oc2=O)cc1 | inactive: 6.28% |
| C(=C\c1ccc2ccccc2n1)/c1ccccc1 | inactive: -4.7% |
| c1cc(-c2ccncc2)ccn1 | inactive: -6.1% |

| SMILES | inhibition |
| --- | --- |
| CCCCOc1cc(C(=O)NCCN(CC)CC)c2ccccc2n1 | inactive: -13.4% and inactive: -7.3% |
| COc1cccc(CC2CC(=O)N(c3ccc4c(C)cc(=O)oc4c3)C2=O)c1 (centres undefined) | inactive: -1.78% |
| CCS(=O)(=O)CCn1c([N+](=O)[O-])cnc1C | inactive: -9.61% |
| O=C1CCc2cc(OCCCCc3nnnn3C3CCCCC3)ccc2N1 | inactive: -0.47% |
| Cc1ccc(C(CC(=O)NCc2ccco2)c2ccc(OC(C)C)cc2)cc1 (centres undefined) | inactive: 26.4% |
| Cc1ccccc1NC(=O)C1c2ccccc2Oc2ccccc21 | inactive: -6.75% |
| CCOC(=O)c1c(C)oc2c1C(=O)c1ccccc1C2=O | inactive: -9.93% |
| O=C(CN1CC[n+]2c(-c3cccs3)csc21)c1ccc(Br)cc1 | inactive: -1.99% |
| Cc1ccc2c(c1)C(C)(C)[C@]1(C)NC(=O)CCN21 | inactive: 1.05% |
| CC(=O)OC1c2c(ccc3ccc(=O)oc23)OC(C)(C)C1OC(=O)CC(C)C (centres undefined) | inactive: 2.41% |
| O=C(CCC(=O)c1cccs1)c1cccs1 | inactive: -7.75% |
| O=C1c2ccccc2C2(c3ccccc3)NCCN12 (centres undefined) | inactive: 0.96% |
| CC(=O)N1c2ccccc2C(C)=CC1(C)C | inactive: -3.84% |
| CCOCc1cc(C)[nH]c(=O)c1C#N | inactive: 2.72% |
| CC(=O)[C@H]1CC[C@H]2[C@@H]3C[C@H](C)C4=CC(=O)CC[C@]4(C)[C@H]3[C@@H](O)C[C@]12C | inactive: 7.25% |
| CC(C)CC1c2[nH]c3ccccc3c2CCN1C(=O)CCC(=O)N(C)C (centres undefined) | inactive: -7.63% |
| CCCCNC(=O)NS(=O)(=O)c1ccc(C)cc1 | inactive: -10.7% |
| C[C@]12CC[C@@H]3c4cc(O)c(O)cc4CC[C@H]3[C@@H]1CC[C@@H]2O | inactive: 19% |
| COc1cccc2c(O)cc(=O)n(C)c12 | inactive: -4.98% |
| COc1ccc2nc(NC(=O)Nc3ccccc3)sc2c1 | inactive: -1.58% |
| COC(=O)c1cc(OC)c(OC)c(OC)c1[N+](=O)[O-] | inactive: 6.03% |
| CC(=O)Nc1cc(O)cc(O)c1 | inactive: -10.7% |
| Cc1ccc(C(=O)NCCNC(=O)c2ccccc2)cc1 | inactive: -6.98% |
| CNCCC(Oc1ccc(C(F)(F)F)cc1)c1ccccc1 (centres undefined) | inactive: -3.18% |
| Cc1nnc(SCC(=O)N2CCCC(C(=O)c3ccc(Cl)cc3)C2)o1 (centres undefined) | inactive: 2.47% |

| SMILES | inhibition |
| --- | --- |
| Cc1cc(C)c2c(CCl)cc(=O)oc2c1 | inactive: 2.6% |
| Cc1coc2c1c(C)cc1oc(=O)c(Cc3ccccc3)c(C)c12 | inactive: -3.62% |
| Cc1ccc2nc3c(cc(C(=O)NCC4CCCO4)c(=N)n3CCCOC(C)C)c(=O)n2c1 (centres undefined) | inactive: 6.09% |
| Fc1ccccc1CNCCC(Cc1ccccc1)c1ccc2c(c1)OCO2 (centres undefined) | inactive: -12.2% |
| CCC1CCc2c(sc(NC(=O)c3cccnc3)c2C(N)=O)C1 (centres undefined) | inactive: -0.06% |
| Cn1c([N+](=O)[O-])cnc1COC(N)=O | inactive: -13.3% |
| COc1cc(C(=O)CCN2CCC(c3ccccc3)C2)cc(OC)c1OC (centres undefined) | inactive: 16.9% |
| Cc1ccccc1-c1coc2cc(O)ccc2c1=O | inactive: 9.8% |
| COc1ccc(C(=O)Nc2ccc(OC)c([N+](=O)[O-])c2)cc1Br | inactive: 0.74% |
| COc1cc(C2Nc3ccccc3NC3=C2C(=O)CC(c2ccc(OC)c(OC)c2)C3)ccc1O (centres undefined) | inactive: 2.86% |
| CCOC(=O)C(=Cc1ccccc1OC)C(=O)OCC | inactive: 41.2% |
| Cc1cccc(C2=N/C(=C\c3cccnc3)C(=O)O2)c1 | inactive: -12.9% |
| COc1ccc(C2C(C(=O)c3ccco3)=C(O)C(=O)N2CC2CCCO2)cc1 (centres undefined) | inactive: -5.42% |
| CS(=O)c1ccccc1O (centres undefined) | inactive: 5.17% |
| COC(=O)c1ccc(COc2ccc3c(C)c(C)c(=O)oc3c2C)o1 | inactive: 1.92% |
| Nc1cc(-c2ccncc2)c[nH]c1=O | active: 49% |
| O=C(CN1C(=O)C2CCc3[nH]c4ccccc4c3C2C1=O)N1CCCC1 (centres undefined) | inactive: -6.03% |
| CCOC(=O)c1cc2c(nc1N)CC(C)(CC)OC2 (centres undefined) | inactive: -4.67% |
| OC(CCN1CCCCC1)(c1ccccc1)C1CCCCC1 (centres undefined) | inactive: -6.29% |
| COc1ccc2c(c1)CC[C@@H]1[C@@H]2CC[C@]2(C)C(=O)CC[C@@H]12 | inactive: -10.8% |
| O=C1OC(=O)C2C1[C@@H]1CC[C@H]2O1 (some centres undefined) | inactive: 0.42% |
| CCNC(=O)C(Cc1ccccc1)NC(=O)OCc1ccccc1 (centres undefined) | inactive: -7.63% |
| COc1ccc2c(CCNC(=O)c3ccc([N+](=O)[O-])cc3)c[nH]c2c1 | inactive: -15.7% |
| Cc1cccc(Oc2coc3cc(OC(=O)c4cncc(Br)c4)ccc3c2=O)c1 | inactive: 8.8% |
| CC[N+]1(CC)CC2=Cc3ccccc3CC2C1 (centres undefined) | inactive: -4.04% |

| SMILES | inhibition |
| --- | --- |
| C=C1C2(C(=O)Nc3ccc(SC(F)F)cc3)CCC(C2)C1(C)C (centres undefined) | inactive: -4.78% |
| COc1ccccc1Oc1c(C)oc2c(CN3CCN(CCO)CC3)c(O)ccc2c1=O | inactive: 2.85% |
| COc1ccccc1N=CC1=C(O)CC(c2ccccc2)CC1=O (centres undefined) | inactive: 6.74% |
| COc1ccc(CNC(=O)C2CCCN2C)cc1OC (centres undefined) | inactive: -5.21% |
| COc1ccc(CNC(=O)c2cc3c(=O)n4ccccc4nc3n(Cc3cccnc3)c2=N)cc1 | inactive: 7.05% |
| OCCOCCN1CCN(C(c2ccccc2)c2ccc(Cl)cc2)CC1 (centres undefined) | inactive: -3.65% |
| C[C@]12CCC(=O)C[C@@H]1CC[C@@H]1[C@@H]2CC[C@]2(C)C=CC[C@@H]12 | inactive: -11.7% |
| COc1ccc(OC)c(NC2=C(Cl)C(=O)N(Cc3ccccc3)C2=O)c1 | inactive: 13.1% |
| CCCC(=O)Nc1ccccc1NC(C)=O | inactive: -6.46% |
| CCCCC(=O)O[C@]1(C(=O)CO)CC[C@H]2[C@@H]3CCC4=CC(=O)CC[C@]4(C)[C@H]3[C@@H](O)C[C@@]21C | inactive: 4.33% |
| Cc1oc2c(C)c3oc(=O)c4c(c3cc2c1C)CCCC4 | inactive: -1.79% |
| CCc1cccc2c3c([nH]c12)C(CC)(CC(=O)O)OCC3 (centres undefined) | inactive: -14.7% |
| CC(C)CCc1noc(CN2CCC(CCN3CCCC3=O)CC2)n1 | inactive: -6.17% |
| CN(C)CC/C=C1\c2ccccc2COc2ccccc21 | inactive: -3.55% |
| COC(=O)c1cc(-c2ccc(C)o2)nc2ccccc12 | active: 78% |
| CC1(C)c2ccccc2N2CC(=O)NC21/C=C/c1ccco1 (centres undefined) | active: 47.4% |
| CC(C)NS(=O)(=O)c1ccc(OCC(=O)Nc2cccc(F)c2)cc1 | inactive: -1.78% |
| CCOC(=O)C1(Cc2cccc(Cl)c2)CCCN(C2CCN(C(C)=O)CC2)C1 (centres undefined) | inactive: -7.42% |
| O=C(Nc1ccc(F)c([N+](=O)[O-])c1)c1ccc2c(c1)OCCO2 | inactive: -18.4% |
| COC(=O)c1ccc(OCCCCN2CC(C)OC(C)C2)cc1 (centres undefined) | inactive: -0.75% |
| Cc1ccc2c(c1)C1OCCC1C1N2C(=O)C2C(C(=O)O)C3C=CC21O3 (centres undefined) | inactive: -9.48% |
| CC(C)=CCC/C(C)=C/CC/C(C)=C/CC/C(C)=C/CC1=C(C)C(=O)c2ccccc2C1=O | inactive: 18.4% |
| CCC(=O)Nc1ccc(C(=O)N2CCN(C(=O)c3ccco3)CC2)cc1 | inactive: -11.5% |
| C[C@]12CC[C@@H]3c4ccc(O)cc4CC[C@H]3[C@@H]1C[C@@H](O)[C@@H]2O[C@@H]1O[C@H](C(=O)O)[C@@H](O)[C@H](O)[C@H]1O | inactive: 5.71% |
